## Percent effect of library compounds

Protein sequences, listed by entry. Tags and fused reporters are not part of them. Residues count along the entry.
UniProt A4I591, 1-473: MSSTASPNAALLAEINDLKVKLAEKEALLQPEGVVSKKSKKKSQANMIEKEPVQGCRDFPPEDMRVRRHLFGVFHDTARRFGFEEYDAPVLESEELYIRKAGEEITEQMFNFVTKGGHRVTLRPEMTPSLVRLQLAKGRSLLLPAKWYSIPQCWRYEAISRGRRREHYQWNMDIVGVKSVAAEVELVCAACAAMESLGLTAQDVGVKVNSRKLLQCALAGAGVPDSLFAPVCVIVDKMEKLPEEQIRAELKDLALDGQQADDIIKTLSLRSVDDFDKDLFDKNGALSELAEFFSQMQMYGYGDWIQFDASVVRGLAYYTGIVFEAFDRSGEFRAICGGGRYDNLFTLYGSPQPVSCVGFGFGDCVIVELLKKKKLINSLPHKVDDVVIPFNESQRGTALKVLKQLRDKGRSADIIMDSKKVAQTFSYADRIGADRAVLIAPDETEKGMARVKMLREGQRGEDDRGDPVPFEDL
UniProt I6X8D2, whole entry: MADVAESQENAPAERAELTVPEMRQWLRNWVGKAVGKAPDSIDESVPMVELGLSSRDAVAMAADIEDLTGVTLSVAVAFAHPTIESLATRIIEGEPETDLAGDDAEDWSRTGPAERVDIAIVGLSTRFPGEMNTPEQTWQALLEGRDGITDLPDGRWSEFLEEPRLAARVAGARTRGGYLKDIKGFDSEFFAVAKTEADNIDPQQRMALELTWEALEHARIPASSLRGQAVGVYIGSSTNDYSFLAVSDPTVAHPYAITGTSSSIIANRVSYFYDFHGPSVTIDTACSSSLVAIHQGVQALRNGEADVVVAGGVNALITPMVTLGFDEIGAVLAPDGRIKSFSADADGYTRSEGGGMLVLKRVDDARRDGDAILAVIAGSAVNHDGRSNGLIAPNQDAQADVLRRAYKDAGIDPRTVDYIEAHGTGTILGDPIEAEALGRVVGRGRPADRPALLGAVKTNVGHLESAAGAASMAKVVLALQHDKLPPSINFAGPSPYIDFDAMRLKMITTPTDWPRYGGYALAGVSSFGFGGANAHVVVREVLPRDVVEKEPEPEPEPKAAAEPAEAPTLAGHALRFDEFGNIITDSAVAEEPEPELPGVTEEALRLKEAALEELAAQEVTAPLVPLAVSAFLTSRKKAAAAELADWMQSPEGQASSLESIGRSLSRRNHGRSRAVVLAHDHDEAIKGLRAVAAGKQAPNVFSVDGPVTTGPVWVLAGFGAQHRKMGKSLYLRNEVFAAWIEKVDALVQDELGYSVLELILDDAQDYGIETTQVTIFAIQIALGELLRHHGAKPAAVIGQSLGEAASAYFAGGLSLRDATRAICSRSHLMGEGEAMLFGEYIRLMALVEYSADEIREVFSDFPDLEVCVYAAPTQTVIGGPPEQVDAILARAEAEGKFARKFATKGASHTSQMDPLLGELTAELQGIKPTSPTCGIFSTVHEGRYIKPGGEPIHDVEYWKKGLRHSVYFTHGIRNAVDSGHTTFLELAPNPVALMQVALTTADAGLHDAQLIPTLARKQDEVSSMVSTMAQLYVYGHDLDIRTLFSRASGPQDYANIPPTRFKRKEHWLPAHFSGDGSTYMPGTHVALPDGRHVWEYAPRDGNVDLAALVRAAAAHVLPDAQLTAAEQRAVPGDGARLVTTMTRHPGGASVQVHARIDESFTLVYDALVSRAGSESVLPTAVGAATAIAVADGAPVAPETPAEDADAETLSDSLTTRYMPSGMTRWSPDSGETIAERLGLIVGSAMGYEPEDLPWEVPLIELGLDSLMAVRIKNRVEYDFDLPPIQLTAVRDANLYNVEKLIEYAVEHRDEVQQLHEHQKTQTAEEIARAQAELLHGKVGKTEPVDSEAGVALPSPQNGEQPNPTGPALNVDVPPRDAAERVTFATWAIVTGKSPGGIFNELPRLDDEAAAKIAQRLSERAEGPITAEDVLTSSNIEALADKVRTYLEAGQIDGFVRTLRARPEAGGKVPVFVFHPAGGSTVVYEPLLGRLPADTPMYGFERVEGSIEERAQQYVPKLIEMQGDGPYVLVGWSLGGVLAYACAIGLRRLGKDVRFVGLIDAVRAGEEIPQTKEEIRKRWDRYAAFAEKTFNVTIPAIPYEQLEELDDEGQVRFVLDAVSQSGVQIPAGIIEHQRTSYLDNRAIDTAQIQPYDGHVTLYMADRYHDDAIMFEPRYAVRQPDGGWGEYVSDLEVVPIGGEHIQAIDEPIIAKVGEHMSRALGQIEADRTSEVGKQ

Measurements from “University of Dundee, Small-Polar-MMV Screening Library” (2021), ChEMBL document CHEMBL3988442.

LiHisRS: 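Enzyme assay of histidyl-tRNA synthetase; the read-out is not stated. Target: Histidine-tRNA ligase, Leishmania infantum (UniProt A4I591). Concentration: 30 µM. Direction is inferred from retests: higher values go with stronger inhibition. The assay is labelled LdHisRS but filed under L. infantum. Of about 69,000 compounds tested this way, about 410 (0.6%) reached 50% or more in at least one test.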
Pks13 thioesterase: 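Polyketide synthase Pks13, Mycobacterium tuberculosis (UniProt I6X8D2). Enzyme assay of the thioesterase domain of polyketide synthase 13; the read-out is not stated. Concentration: 30 µM. The record gives no direction; the compounds picked for IC50 retests had high values, so higher reads as stronger inhibition. Size under these conditions: about 67,000 compounds, about 300 of them at 50% or above in at least one test.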

Each number is a percent effect as filed. The record does not define 0% and 100%; most values in the screen are far below 50% and negative numbers occur (in some assays of this library far below -100). This is an unselected part of the compounds tested. A dash means the value is not listed here; it may have been measured.

structure,LiHisRS,Pks13 thioesterase
COCCN(Cc1ccc(F)cc1Cl)C(=O)c1csnn1,28.77%,-51.62%
Cc1ccc(C(=O)N2CCc3ccc(=O)n(CCN(C)C)c3CC2)o1,9.722%,-4.098%
CCOc1cccc(NC(=O)c2cc(C)on2)n1,18.37%,-6.38%
Cc1cc(N(C)C)nc(N2CCCC2c2cc(C)on2)n1 (stereo not shown),28.57%,-8.159%
CC(Cn1cccn1)NCc1nc(-c2ccco2)no1 (stereo not shown),13.16%,-3.179%
CN(C)c1ncccc1CNC(=O)NCc1cccs1,5.769%,-2.624%
CC(C)[C@@H]1CN(c2ncc(F)cn2)C[C@H]1NC(=O)N(C)C,20.41%,4.833%
CCc1nc(C(=O)N(CC)CC(=O)N(C)C)nn1-c1ccccc1Cl,22.12%,-10.02%
CC(C)NC(=O)COc1ccc(-c2nc(C(C)C)no2)cc1,-4.762%,-9.744%
CN1CCN(C(=O)c2cc(-c3cnc(N4CCCC4)nc3)cn2C)CC1,7.692%,2.54%
Cc1cc(N2CCOCC2)nc(N(C)CCO)c1C#N,5.495%,9.437%
Cc1ccc(C(=O)N2C[C@@H]3[C@@H](C2)OCC(=O)N3Cc2cccnc2)o1,22.12%,-37.88%
CC(NCc1cnn(C)c1)c1ccc(OCc2nccn2C)cc1 (stereo not shown),4.819%,-32.37%
Cc1ccc(C(=O)N2CCCC(Cn3cc(C(C)(C)N)nn3)C2)s1 (stereo not shown),20.8%,-6.741%
COc1ccc(OC)c(CCNC(=O)NC(C)Cn2ccnc2)c1 (stereo not shown),15.2%,-37.21%
O=C(Cc1cccc2cccnc12)N1CCCN(c2cccnn2)CC1,4.959%,-15.14%
CCn1cc(S(=O)(=O)NCC(OC)c2ccccc2)cn1 (stereo not shown),14.53%,-27.08%
CO[C@H]1COCCN(C(=O)c2cc(C)oc2C(F)(F)F)C1,33.33%,-29.36%
O=C(CN1CCS(=O)(=O)CC1)NCc1ccccc1F,6.25%,-8.063%
CCNc1cc2c(nn1)CCN(C(=O)Cc1ccc3c(c1)CCO3)C2,14.91%,-10.69%
CCCc1nnc(N(C)CC2CCCN(CC)C2)o1 (stereo not shown),7.042%,3.011%
Cc1noc(C)c1CC(=O)N1CCCC(Cn2ccnc2C)C1 (stereo not shown),18.07%,0.8193%
CC(C)CCOCCNC(=O)Nc1ccc(F)c(C(N)=O)c1,11.97%,-36.34%
OC1(Cn2ccc3ncccc32)CCN(Cc2ccccc2F)CC1,19.79%,17.51%
COCCNC(=O)N1CCSC2(CCCCC2)C1,15.71%,-
CC(C)CCCNC(=O)Nc1ccc(F)c(C(N)=O)c1,31.25%,-
OCCOc1nc(-c2ccccc2Cl)no1,19.23%,-2.298%
O=C(NCC1CC1)c1cnc(-c2ccccc2)nc1,13.11%,-1.631%
CC(NC(=O)CCc1nc(C(C)(C)C)no1)c1nnc2n1CCC2 (stereo not shown),14.75%,-10.24%
Cc1c(NC(=O)c2ccc(Br)cc2)c(C(=O)N(C)C)nn1C,8.621%,-0.8021%
Cc1noc(C2CCN(CC(=O)N3CCNC(=O)C3)CC2)n1,6.452%,9.331%
O=C(NC1CC1)c1cccc(Oc2ccc3nncn3n2)c1,7.692%,-3.654%
Cn1ccnc1CN1CCN(Cc2ccc(C#N)cc2F)CC1,16.51%,-19.53%
CN1CCC(Cc2cncc(-c3ccccc3C(=O)O)n2)C1 (stereo not shown),20.62%,12.82%
CCN1CCC(NC(=O)NCC(O)c2ccc(Cl)c(F)c2)CC1 (stereo not shown),15.32%,-9.995%
C[C@@H]1C[C@H]2CN(C(=O)C3=CCCC3)C[C@H]2O1,13.59%,-27.43%
CCn1c(CN(C)C(=O)c2ccc(OC)nc2)nc2ccccc21,-10.53%,-9.22%
CCN(CC)C(=O)C1CCC(=O)N(CCc2cccc(F)c2)C1 (stereo not shown),-1.587%,-9.317%
CCN(CC1CCCO1)C(=O)NCCNC(=O)c1ccccc1F (stereo not shown),6.024%,1.544%
O=C(NCc1ccccc1-n1cccn1)N1CCC(N2CCCC2)C1 (stereo not shown),10.34%,-4.826%
CCN(CC)C(=O)COc1ccnc2cc(OC)ccc12,18.07%,5.839%
O=C(Cc1ccccc1)N1CC[C@H]2[C@@H]1CCC(=O)N2Cc1ccncc1,28.21%,1.233%
O=C(c1ccsc1)N1C[C@@H]2C[C@@H](c3nnc(C4CC4)o3)O[C@@H]2C1,8.738%,-19.52%
c1cncc(C2COC3(CCN(CC4CC4)CC3)C2)c1 (stereo not shown),17.31%,-4.844%
Cc1nc(CN2CCCC(CCc3ccc(F)c(F)c3)C2)c[nH]1 (stereo not shown),11.11%,-11.26%
CN1CC(C(=O)N2CCN(c3cccc(Cl)c3)C(=O)C2)NC1=O (stereo not shown),9.524%,0.4553%
N[C@H]1CN(C(=O)c2ccccc2OCc2ccccc2)C[C@@H]1C1CC1,15.83%,-3.119%
c1csc(-c2nc(CN3CCOC(Cn4cccn4)C3)cs2)c1 (stereo not shown),17.54%,-5.987%
O=C(c1ccc(F)cc1)N(CCCO)S(=O)(=O)c1cccs1,0%,-17.64%
Cc1cccc(-c2noc(CN3CCn4c(nnc4C4CC4)C3)n2)c1,0%,15.16%
CCCc1noc(CN2CCC(N(C)Cc3nnc(C4CC4)o3)C2)n1 (stereo not shown),15.38%,-27.94%
Cc1cc(C)c(C(=O)Nc2cccc(CN3CCC(CO)CC3)c2)o1,3.191%,4.566%
C[C@@H]1CN(C(=O)c2cccc(F)c2)C[C@]12CCN(c1ccsc1)C2=O,10%,-7.932%
Cc1ccc(CN2C[C@@H]3CCN(Cc4cccnc4)C(=O)[C@H]3C2)s1,9.615%,-51.68%
Cc1cnn(CC2CCCN2C(=O)c2ccc(C(N)=O)cn2)c1 (stereo not shown),0%,-20.37%